Experimental data published in PubChem BioAssay AID1794845 (National Center for Advancing Translational Sciences (NCATS), 2023).
The campaign covered roughly 6,900 compounds. Fewer than 10 were called active. Calls come from the whole dose curve; as a rule, active = well fitted curve in the direction sought with a large enough effect; inconclusive = small, poorly fitted or top-dose-only effect, or another doubt; inactive = no such curve, though single readings can be large or run the other way. The list shows a part of the results.

Protein sequences, listed by entry. Tags and fused reporters are not part of them. Lines headed by an entry give the natural chain unless they say otherwise; changes in a name come on top.
UniProt C7C422: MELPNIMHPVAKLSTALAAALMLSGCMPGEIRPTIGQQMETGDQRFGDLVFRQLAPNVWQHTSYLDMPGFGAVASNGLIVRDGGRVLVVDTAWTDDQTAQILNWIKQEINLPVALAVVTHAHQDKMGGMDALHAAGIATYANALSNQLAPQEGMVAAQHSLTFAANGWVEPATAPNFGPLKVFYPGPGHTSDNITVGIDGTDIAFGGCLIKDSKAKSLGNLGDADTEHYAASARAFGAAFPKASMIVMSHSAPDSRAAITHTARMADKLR

Each compound was assayed against Metallo-beta-lactamase type 2 (Klebsiella pneumoniae) (UniProt C7C422) (assay: qHTS to identify inhibitors of the New Delhi Metallo-beta-lactamase (NDM): primary screen against the NCATS Gemini Collection). Conditions: NDM-1 enzyme, meropenem hydrolysis, absorbance 300 nm; at 38.4 µM (top of the series) unless noted.
Method in brief: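 Meropenem hydrolysis (50 uM final) by 2 nM NDM-1 read as 300 nm absorbance after 30 min, following >30 min compound–enzyme preincubation in HEPES pH 7.0 with 1 uM ZnSO4 and 0.01% Tween20.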
Note: % of control where 0% means no effect.

Activity % (negative = inhibition), inactive:
COC(=O)CC1CCN(C(=O)C2CC(=O)N(c3n[nH]c4cccc(F)c34)C2)CC1 (stereo unspecified) 3.61%
C=CCn1cc(CN2CCC(Oc3ccc4ccccc4c3)(C(=O)O)CC2)cn1 -0.276%
Cc1ccc(-c2cccc(CN3C4CCC3CN(C(C)C)C4)c2)c(C)c1 7.9%
Cc1nc2ccc(C(=O)NCc3cc4n(n3)CCN(C(=O)N(C)C)C4)cc2o1 -1.85%
Cc1cc(F)ccc1NC(=O)CCC1CCCN(Cc2cn[nH]c2-c2cccc(F)c2)C1 (stereo unspecified) -6.26%
O=C(NCc1ccccn1)C1CCN(c2cc(C3CC(O)C3)ncn2)CC1 (stereo unspecified) 0.243%
CCOC(=O)C1(Cc2ccccc2)CCNCC1 -12.4%
Cc1noc(C)c1S(=O)(=O)N1CCC2(CC1)CC(OCC1CC1)CCO2 (stereo unspecified) 29.6%
O=C(C1CCCC1)N1Cc2ccccc2CC2(CCCN(Cc3ccccc3)C2)C1 (stereo unspecified) -6.05%
CCN1CCC2(CCC1=O)CN(Cc1ccc(C)c3ccccc13)CCN2C (stereo unspecified) -7.37%
COc1ccc(C2(C(=O)N3C[C@@H](Oc4cccnc4)C[C@H]3C(=O)NC3CC3)CC2)cc1 -2.39%
O=C(CCc1ccc2c(c1)CN(C(=O)C1CC1)CCO2)NC1CCS(=O)(=O)C1 (stereo unspecified) -1.14%
COCCC1(C(=O)O)CCCN(Cc2cn[nH]c2C2CCCCC2)C1 (stereo unspecified) -0.903%
COc1cccc(-c2ccc(C(=O)NCCN[S+](=O)([O-])c3cccs3)cc2)c1 5.43%
Cc1nc([C@@H]2CN(C(=O)CCc3c(C)noc3C)C[C@H]2C(N)=O)n[nH]1 -2.38%
O=C(N1CCCCCC1CN1CCOCC1)C1(c2ccccc2)CC1 (stereo unspecified) 12.4%
CN(CCc1ccccn1)[C@H]1[C@@H]2OC[C@@H](O2)[C@@H](NCc2ccc(-c3ccccc3)cc2)[C@@H]1O 4.11%
O=C1CCN(C(=O)C2CCN(C(=O)c3ccc4ccccc4n3)CC2)CCCCCCN1 8.72%
CCOCC(=O)N1CCC(N2C(=O)C3(CCCCC3)C2c2ccccc2)CC1 (stereo unspecified) -12.7%
Cc1cc(S(=O)(=O)N2CCCC2c2noc(COc3ccc(F)cc3)n2)ccc1F (stereo unspecified) 1.13%
Cc1noc(C)c1Cc1ccc(C(=O)NC2CCc3nnc(C)n3CC2)o1 (stereo unspecified) -6.81%
COc1ccccc1-c1cnc2n[nH]c(-c3ccc4c(c3)OCO4)c2n1 3.54% [at 57.5 µM]
O=C1NC2(CCCN(Cc3cncs3)C2)COc2ccccc21 (stereo unspecified) -0.209%
COc1cccc(NCc2nnc(C(=O)N3CCC[C@@H]3c3cccc(F)c3)n2-c2ccccc2)c1 1.91%
CN1CCOc2c(C(=O)NCCc3cnc[nH]3)cc(-c3ccccc3F)cc21 7.82% [at 57.5 µM]
COCc1cc(=O)n(CC(=O)NCc2ccc(OC)cc2)c(N2CCOCC2)n1 0.0069%
CC(C)CNc1ccc2c(n1)C(C)(C(=O)NCc1cccnc1)CN(Cc1ccccc1)C2 (stereo unspecified) -0.786%
Cn1nccc1C(=O)N1CCC(c2nc(CCOCC3CCCC3)no2)C1 (stereo unspecified) 27.1%
COCCN(C)C[C@@H]1CN(C(=O)Cn2ncc3ccccc3c2=O)C[C@@H]1CO 7.38%
Cc1ccccc1NC(=O)N1CCC(N(CCC(C)C)C2CCOCC2)CC1 3.7%
CN(CCc1ccccn1)C(=O)c1cn(Cc2cccc(C(F)(F)F)c2)nn1 0.393%
Nc1cc(C(=O)N2CCc3onc(-c4ccc(-c5ccccc5)cc4)c3C2)[nH]n1 19.3%
CCc1nnc2ccc(NC3CC3)nn12 10.5%
C=CCn1cc(CN(CC)Cc2ccc(OC)cc2)c(C)n1 -3.32%
CCc1noc(-c2cn(C3CCCN(C(=O)COc4cccc(C)c4)C3)nn2)n1 (stereo unspecified) -4.77%
Cc1cc(C(=O)N[C@H]2[C@H](O)[C@H](O)C[C@@H]2c2ccc(N3CCOCC3)nc2)n(C)n1 17.4% [at 57.5 µM]
CCC(=O)N1CCc2sc(C(=O)NCc3ccc4c(c3)OCO4)cc2C1 11.1%
CC(=O)Nc1cccc(-c2ncc3c(n2)OCCN(CC2CC2)C3=O)c1 23.9% [at 57.5 µM]
O=C1COCCN1C1CCN(Cc2ccc(F)cc2)CC1 -6.53%
COCCOc1cc(=O)n2c(c1C(=O)NCc1ccccc1)CCOCC2 2.55%
CN1CCN(CCCNC(=O)C2CCc3sc(C(=O)N4CCCCCC4)cc3C2)CC1 (stereo unspecified) 3.23%
CC(C)NC(=O)c1ccccc1OCC1CCCN(Cc2cn(C)c3ccccc23)C1 (stereo unspecified) 2.17%
CC(C)c1nccn1CCCNC(=O)c1ccc(N2CCCC(CO)C2)nc1 (stereo unspecified) 17.7%
O=C(c1cnccn1)N1CCC(c2nc(C3CC3)no2)C1 (stereo unspecified) 5.6%
O=C(Nc1ccc2c(N3CCOCC3)ncnc2c1)c1cccc(Cl)c1 10.7%
COCCc1noc(-c2ccc(N(C)Cc3ccnc(C)c3)nc2)n1 3.53%
O=C(NC[C@H]1OC[C@@H](NC2CCCCC2)[C@@H]1O)N1CCOCC1 0.481% [at 57.5 µM]
CN1CCCCCCN(C(=O)Cc2cccc(F)c2)[C@H]2CCC[C@H]2C1=O -0.368%
COC[C@H]1NC(=O)CC[C@H]1C(=O)NCCC1=CCCCC1 -2.66%
CN(C)C[C@@H]1CN(S(C)(=O)=O)C[C@H]1NC(=O)CC1CCN(C)CC1 -18.1%
CCn1cc(CNc2ccc(-c3ccccc3OC)nn2)cn1 3.91%
CN1C(=O)CC[C@]2(C(=O)NCc3ccco3)CCCC[C@@H]12 73.1%
CCOCCCNC(=O)c1cc2c(=O)[nH]c(-c3ccccc3)cn2n1 65%
COc1cccc(CN2CCC(n3cc[nH]c3=O)CC2)c1 5.24% [at 57.5 µM]
Cc1cc(C(F)(F)F)nc(CCNC(=O)C2NCCc3[nH]cnc32)n1 (stereo unspecified) 40.1%
O=C1CC(C(=O)Nc2cccc(Cl)c2)n2ncnc2N1 (stereo unspecified) 0.494%
O=C(COc1ccccc1)N1CCc2nn(Cc3ccccc3)c(=O)n2CC1 2.95%
CN(Cc1cccnc1)C(=O)c1n[nH]c2c1CN(Cc1cccnc1)CC2 -1.01%
O=C(c1ccc2c(c1)N(C(=O)c1ccccc1)CC2)N1CCN(c2ccc(Cl)cc2)CC1 5.37%
CNS(=O)(=O)CCNc1nc(-c2ccccn2)nc2c1c(C)nn2C 1.42%
CCOc1ccccc1CN1CCCOCCNC(=O)[C@@H]2CCCC[C@@H]21 8.41%
Cc1cc(C[C@@H]2COC[C@@H]2NC(=O)c2cnn3cc(CCO)cnc23)on1 23.9%
Cc1ccccc1CNC[C@H]1O[C@@H]2C[C@@H](CC(=O)NCc3nccn3C)O[C@@H]2[C@@H]1O 8.75% [at 57.5 µM]
CCn1ncc(N2CCCC(CC(=O)Nc3cc(OC)cc(OC)c3)C2)cc1=O (stereo unspecified) 42.6%
Cn1cccc1CN1CC(F)(F)C[C@H]1c1nnc(C2CC2)o1 5.85%
O=C(c1ccc(Cl)cc1)N1CCCC2(CNc3ncccc3[S+](=O)([O-])N2)C1 (stereo unspecified) 25.3%
COc1ccc(CCN(Cc2ccccn2)C(=O)[C@H]2CCC[C@H](O)C2)cc1 12.7%
Cc1ccc(-c2cc3c(ccn3C)c(C(=O)NCc3cccnc3)n2)cn1 9.15% [at 57.5 µM]
COC[C@]1(O)CCN(C(=O)c2oc(COc3ccccc3)cc2C)CC1(C)C 13.3%
CCCCS(=O)(=O)N1CCC(c2nnc(Cn3cncn3)n2C)CC1 20.2%
C#CCNC(=O)CNC(=O)c1cccc(-c2cc(F)ccc2OC)c1 3.26% [at 57.5 µM]
O=C(N[C@H](c1cccs1)C1CC(O)C1)c1cnn2cc(CCO)cnc12 (stereo partly specified) 12%
CCn1nccc1C(=O)N1CCC(Nc2nccnc2OC)CC1 -5.5%
CCc1noc([C@@H]2CC(F)(F)CN2C(=O)c2cc(C3CC3)[nH]n2)n1 6.71%
CN(Cc1cc(F)c(F)c(F)c1)C1CCc2nn(CC3CC3)c(=O)n2CC1 (stereo unspecified) 16%
Cc1nc([C@@H]2CN(C(=O)c3nn(C)c4ccccc34)C[C@H]2C(N)=O)n[nH]1 20.5%
CC(C)CCNC(=O)[C@H]1CN(Cc2ccccc2)C[C@H]1C(=O)O 1.31%
O=C1CN([S+](=O)([O-])c2ccc(F)cc2)CC(O)CN1Cc1cccs1 (stereo unspecified) 2.28%
CC(=O)N1CC2(CCCN(C3CCCCC3)C2)Cc2ccccc21 (stereo unspecified) 0.985%
COCc1nc(-c2ccc(OC3CN(C(=O)NCc4ccc(OC)cc4)C3)cc2)no1 9.24%
CC1(c2noc(C3CC3)n2)CCN(C(=O)CCCc2nc3ccccc3s2)CC1 -0.598%
Cc1ccccc1Cc1c(C)nc2c(C(=O)N3CCC(Cc4nncn4CC4CC4)CC3)cnn2c1C 22.3%
CNC(=O)N1CCCC(n2c(C)cnc2-c2ccncc2)C1 (stereo unspecified) 1.34%
COc1cccc(CNC(=O)NC2CCc3n[nH]c(=O)n3CC2)c1 (stereo unspecified) -0.469%
COc1ccc([C@@H]2CN(c3nnnn3-c3ccccc3)C[C@H]2NC(C)=O)cc1 0.261%
Cc1ccc(NC(=O)C2N(C(C)C)C(=O)C23CCCCC3)cc1 (stereo unspecified) 0.865%

Reprinted at random: three records from the list, in no set order.
Activity % (negative = inhibition), inactive:
CC(C)CCNC(=O)[C@H]1CN(Cc2ccccc2)C[C@H]1C(=O)O 1.31%
CCc1noc(-c2cn(C3CCCN(C(=O)COc4cccc(C)c4)C3)nn2)n1 (stereo unspecified) -4.77%
Cc1ccc(-c2cc3c(ccn3C)c(C(=O)NCc3cccnc3)n2)cn1 9.15% [at 57.5 µM]

As a short view, some entries already given.
Activity % (negative = inhibition), inactive:
O=C(c1cnccn1)N1CCC(c2nc(C3CC3)no2)C1 (stereo unspecified) 5.6%
O=C(Nc1ccc2c(N3CCOCC3)ncnc2c1)c1cccc(Cl)c1 10.7%
